Source: PubChem BioAssay AID662 (National Center for Advancing Translational Sciences (NCATS), 2007)
Some of the results follow. Shown are side measurements of this screen, not its main read-out; they come without a call. The list favours compounds with an active or inconclusive main result. Potencies come from curve fits of mixed quality, noted in brackets.

test: Cell signaling CRE-BLA (Fsk stim); settings: CHO CRE-bla reporter (cAMP response element driving beta-lactamase), forskolin EC10, beta-lactamase ratio; measured here: 460 nm blue channel
Method in brief: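 Using CellSensor CRE-bla CHO cells in Opti-MEM with 0.5% dialyzed FBS, compounds were titrated with EC10 NKH 477 for 3 h at 37 °C. CCF4 ratio (460/530 nm) gave %Activity; AC50 derived.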

SMILES | AC50
COC(=O)/C=C(\C)NC(=O)c1ccccc1Cl | 15.8 µM [rising, single point]
CCCOC(=O)c1ccc(Oc2cn[nH]c2-c2ccc(OC)cc2O)cc1 | 12.6 µM [falling, partial curve]
O=C(CCn1c(=O)oc2ccccc21)N1CCOCC1 | 3.16 µM [falling, full curve, poor fit]
COc1ccccc1Nc1nc2ccccc2[nH]1 | 5.01 µM [falling, partial curve, poor fit]
CCn1c(=NC(=O)CSC(C)=O)sc2cc(OC)ccc21 | 10 µM [rising, single point]
CCOC(=O)c1ccccc1NC(=O)c1ccccc1SC | 25.1 µM [rising, single point]
FC(F)(F)c1ccccc1-c1nc(N2CCOCC2)c2ccccc2n1 | 3.16 µM [rising, full curve]
O=c1cc(CN2CCN(c3ccccc3)CC2)c2cc(O)c(-c3ccccc3)cc2o1 | 0.631 µM [falling, partial curve]
COC(=O)c1sc(N)c(C(=O)OC)c1CSc1nnnn1C | 1 µM [falling, partial curve]
Cc1cnc(CNc2cc(-c3cccc(C#N)c3)ncn2)cn1 | 7.94 µM [rising, partial curve]
CCOCCCN1C(=O)CN(C2CCCCC2)C(=O)C1c1ccc(OCC)c(OC)c1 (centres undefined) | 3.98 µM [rising, full curve]
CCc1ccccc1NC(=O)CSc1nc2n[nH]c(C)c2c(=N)n1-c1ccc(OC)cc1 | 2 µM [rising, full curve]
COC(=O)c1ccc2c(=O)n(CCC3=CCCCC3)c(SCC(=O)N3CCCC3)nc2c1 | 2.51 µM [rising, single point]
CCOc1cc(-c2c(C#N)c(N)nc3c2CCCC3)ccc1O | 5.01 µM [rising, full curve]
CCOc1nc(C)ccc1-c1noc(-c2ccccc2OC)n1 | 5.01 µM [falling, single point]
CCNc1ncc2nc(-c3cn(C)c4ccccc34)c(=O)n(CCC#N)c2n1 | 12.6 µM [rising, partial curve]
COc1ccc(NC(=O)CCNC(=O)Cn2ccc3ccccc3c2=O)c(OC)c1 | 25.1 µM [rising, single point]
CCOC(=O)c1nn(-c2ccc(OC)cc2)c(=O)c2c(NC(=O)c3ccco3)scc12 | 15.8 µM [rising, single point]
COCCNC(=O)C(C#N)c1nc2ccccc2nc1N1CCCCCC1 (centres undefined) | 15.8 µM [rising, partial curve]
COc1cc(NS(C)(=O)=O)c(OC)cc1NC(=O)c1cccc(F)c1 | 12.6 µM [rising, single point]
CN(C)c1ncc2nc(-c3cc(F)cc(F)c3)c(=O)n(Cc3cccs3)c2n1 | 5.01 µM [rising, partial curve]
NC(=O)c1cnn2c(C(F)(F)F)cc(-c3ccc(F)cc3)nc12 | 6.31 µM [rising, partial curve]

SMILES | AC50
COc1ccc(C2C(C#N)=C(N)OC3=C2C(=O)CC(C)(C)C3)c(OC)c1OC (centres undefined) | 0.0631 µM [rising, full curve]
CCSc1nc2cc(OC)c(OC)cc2c(=O)n1CC | 10 µM [rising, partial curve]
Cc1nn(-c2ccc3nnc(Br)n3n2)c(C)c1Br | 3.98 µM [falling, partial curve]
CCCCc1ccc(NC(=O)C2CCCO2)cc1 (centres undefined) | 0.00316 µM [falling, full curve, poor fit]
O=c1[nH]c2[nH]c(=S)[nH]c(=S)c2[nH]1 | 0.1 µM [rising, partial curve]
CC(=O)C1=C(C)NC(SCC(=O)c2ccc(F)cc2)=C(C#N)C1c1ccco1 (centres undefined) | 15.8 µM [rising, partial curve]
CCCC(c1nnnn1CS(=O)(=O)c1ccc(C)cc1)N1CCN(c2ccccc2)CC1 (centres undefined) | 25.1 µM [falling, partial curve]
Cc1ccc(OCC(=O)N2CCN(C(=O)CCC3CCCC3)CC2)cc1 | 1.26 µM [falling, full curve, poor fit]
O=C(c1nnc(Cc2ccc(Cl)cc2)o1)N1CCc2ccccc2C1 | 25.1 µM [falling, single point]
Cc1csc(SCC(=O)Nc2c(C)n(C)n(-c3ccccc3)c2=O)n1 | 5.01 µM [falling, full curve, poor fit]
O=C(O)CCC(=O)Nc1ccc2ccccc2c1 | 0.000794 µM [falling, full curve, poor fit]
COc1ccc(CNc2ncncc2-c2cccc(C#N)c2)c(OC)c1 | 10 µM [rising, partial curve]
CSc1ncnc2nc[nH]c12 | 12.6 µM [rising, partial curve]
CN(C)c1ncc2nc(-c3ccc(F)cc3)c(=O)n(CCC#N)c2n1 | 1 µM [rising, partial curve]
Cc1csc(SCC(=O)N2CCN(S(=O)(=O)c3ccccc3)CC2)n1 | 5.01 µM [falling, single point]
COc1ccc(-c2noc(CSc3nc(-c4ccccc4)cc(=O)[nH]3)n2)cc1OC | 0.00794 µM [rising, full curve, poor fit]
Cn1c(=O)c2c(nc(SCCCO)n2Cc2ccccc2Cl)n(C)c1=O | 12.6 µM [rising, single point]
O=C(O)CCSCC(=O)c1ccc2c(c1)OCCO2 | 12.6 µM [falling, single point]
COc1ccc(-n2c(=O)c(-c3ccc(F)cc3)nc3cnc(N4CCOCC4)nc32)cc1 | 3.16 µM [rising, full curve]
COc1ccc(Nc2nc(N)nc(CSc3n[nH]c(-c4ccccc4)n3)n2)cc1 | 0.316 µM [rising, full curve]
CN1CCN(c2ncc3nc(-c4cn(C)c5ccccc45)c(=O)n(CCC#N)c3n2)CC1 | 10 µM [rising, partial curve]
CCN1CCN(c2nc(-c3cccnc3)nc3ccccc23)CC1 | 12.6 µM [rising, single point]

Copied from the list:
COC(=O)/C=C(\C)NC(=O)c1ccccc1Cl | AC50: 15.8 µM [rising, single point]
CCCOC(=O)c1ccc(Oc2cn[nH]c2-c2ccc(OC)cc2O)cc1 | AC50: 12.6 µM [falling, partial curve]
